US20180200257A1, “METHODS FOR THE TREATMENT OF INFLAMMATORY DISORDERS” (Galapagos NV, priority 2015, published 2018)
The source gives many values for each of these; only a part stands here.

System: subjects with moderately to severely active RA who have an inadequate response to methotrexate (MTX)
Assay: Study 2 (monotherapy) - DAS28(CRP) scores
Assay type: in vivo, human
Conditions: 24 weeks results
From the text: Randomized, double-blind, placebo-controlled, multicenter, phase IIb dose finding study of Compound 1 (dosed as a [Compound 1:HCl:3H2O]) administered for 24 weeks as monotherapy to subjects with moderately to severely active rheumatoid arthritis who have an inadequate response to methotrexate alone
Double-blind, placebo-controlled, monotherapy study in subjects with moderately to severely active RA who have an inadequate response to methotrexate (MTX) (oral or parenteral).
280 subjects randomized to one of 3 doses of Compound 1 (dosed as a [Compound 1:HCl:3H2O]) or to placebo, given once daily (q.d.).
Twelve weeks of treatment with Compound 1 (dosed as a [Compound 1:HCl:3H2O]) at 50 mg, 100 mg, or 200 mg q.d.; or placebo. At Week 12, all subjects on placebo and the subjects on the 50 mg dose who have not achieved 20% improvement in swollen joint count (SJC66) and tender joint count (TJC68) will be assigned to 100 mg q.d. in a blinded fashion and will continue treatment until Week 24. Subjects in the other groups will maintain their randomized treatment until Week 24.
The (DAS28(CRP)) is a system developed and validated by the European League Against Rheumatism (EULAR) to measure the progress and improvement of rheumatoid arthritis and has been extensively validated (Wells et al., 2008). The DAS28(CRP) scoring includes a 28 tender and swollen joint count, CRP measurement from blood analysis, and a general health assessment on a visual analog scale (Fransen et al., 2003).
DAS28(CRP) values range from 2.0 to 10.0, and more particularly reflect the following status: • Remission: DAS28(CRP) ≤2.6 • Low Disease activity: 2.6 <DAS28(CRP) ≤3.2 • Moderate Disease Activity: 3.2 <DAS28(CRP) ≤5.1 • High Disease Activity: DAS28(CRP) >5.1
In practice, the DAS28(CRP) measurement involves the evaluation 28 different joints including in the measurement (proximal interphalangeal joints (10 joints), metacarpophalangeal joints (10), wrists (2), elbows (2), shoulders (2), and knees (2)). When looking at these joints, both the number of joints with tenderness upon touching and swelling are counted.
Secondly, C-reactive protein level is measured.
Finally, the patient makes a subjective assessment of disease activity during the preceding 7 days on a scale between 0 and 100, where 0 is “no activity” and 100 is “highest activity possible”.
The DAS28(CRP) score is then calculated as follows:
Firstly, the patient is asked to make a vertical mark on a 100 mm Visual Analog Scale (VAS) corresponding to their general health or global disease activity on a touch screen to measure the VAS value, which is used in the formula below.
Secondly, a swollen and tender joint examination is then performed on the patient. The swollen and tender joints are recorded. From this examination are obtained the total amount of swollen joints (SJC) and the total amount of tender joints (TJC), which are used in the formula below.
Thirdly, C-reactive protein (CRP) levels are measured.
Finally, the values obtained above (VAS, TJC28, SJC28, and CRP) are computed into the following Formula to obtain the DAS28(CRP) score.
DAS28(CRP)=0.56*√{square root over (TJC28)}+0.28√{square root over (SJC28)}+[…] ln(CRP+1)+0.014*VAS
The improvement (decreases) in the DAS28(CRP) scores for each patient group at weeks 1, 2, 4, 8 and 12 is shown in Table LXXXVII and Table LXXXVIII below, together with the Hommel-corrected p-value for the pairwise comparisons of each group with placebo.
The number of subjects (N) provided in each groups corresponds to the number of subjects starting the study in each group, and the DAS28 (CRP) data reported below corresponds to the responding subjects continuing for the entire 24 weeks on their initial treatment course.

Compound: O=C(Nc1nc2cccc(-c3ccc(CN4CCS(=O)(=O)CC4)cc3)n2n1)C1CC1 [Compound 1, cyclopropanecarboxylic acid {5-[4-(1,1-dioxo-thiomorpholin-4-ylmethyl)-phenyl]-[1,2,4]triazolo[1,5-a]pyridin-2-yl}-amide]
- DAS28(CRP) mean CFB (LOCF) (50 mg q.d., Week 1): −0.75
- DAS28(CRP) mean CFB (LOCF) (50 mg q.d., week 12): −1.75
- DAS28(CRP) mean CFB (LOCF) (50 mg q.d., week 16): −1.88
- DAS28(CRP) mean CFB (LOCF) (50 mg q.d., week 20): −1.83
- DAS28(CRP) mean CFB (LOCF) (50 mg q.d., week 24): −1.95
- DAS28(CRP) mean CFB (LOCF) (100 mg q.d., Week 1): −0.87
- DAS28(CRP) mean CFB (LOCF) (100 mg q.d., week 8): −1.89
- DAS28(CRP) mean CFB (LOCF) (100 mg q.d., week 12): −2.04
- DAS28(CRP) mean CFB (LOCF) (100 mg q.d., week 16): −2.39
- DAS28(CRP) mean CFB (LOCF) (100 mg q.d., week 20): −2.48
- DAS28(CRP) mean CFB (LOCF) (100 mg q.d., week 24): −2.61
- DAS28(CRP) mean CFB (LOCF) (200 mg q.d., Week 1): −1.16
- DAS28(CRP) mean CFB (LOCF) (200 mg q.d., week 8): −2.23
- DAS28(CRP) mean CFB (LOCF) (200 mg q.d., week 12): −2.32
- DAS28(CRP) mean CFB (LOCF) (200 mg q.d., week 16): −2.53
- DAS28(CRP) mean CFB (LOCF) (200 mg q.d., week 20): −2.55
- DAS28(CRP) mean CFB (LOCF) (200 mg q.d., week 24): −2.62
